According to patent CN116724055A:
These are yes or no findings as the source states them, for the method shown. Some results given as binding are weak or reduced against the parent protein; the word gives no strength.

B1: h48D2 VH2:VL2 (antibody, human IgG1, kappa, L234A L235A, V domains shown)
VH: EVQLVESGGALVQPGGSLRLSCIVSGPSLSHFDITWFRQAPGKGLEWVATISPGVSTYYASWAKSRFTISTDTSKNTLFLQMDSLRAEDTAVYYCARGGVGSSWKAFDLWGPGTLVTVSS
VL: QIVLTQSPATLSASVGDRVTITCQASESISTALAWYQQKPGKAPKLLIYKASTLPSGVPSRFSGSGSGTEFTLTISSLQPDDSATYYCQQGFSSGNVHNAFGQGTKLEIKR
B2: h48D2 VH2:VL3 (antibody, human IgG1, kappa, L234A L235A, V domains shown)
VH: EVQLVESGGALVQPGGSLRLSCIVSGPSLSHFDITWFRQAPGKGLEWVATISPGVSTYYASWAKSRFTISTDTSKNTLFLQMDSLRAEDTAVYYCARGGVGSSWKAFDLWGPGTLVTVSS
VL: DILLTQTPSVVSASVGDRVTITCQASESISTALAWYQQKPGQAPRLLIYKASTLPSGVPSRFRGSGSGTDFTLTITSLQPEDFATYYCQQGFSSGNVHNAFGGGTRLEIKR
B3: h48D2 VH2:VL4 (antibody, human IgG1, kappa, L234A L235A, V domains shown)
VH: EVQLVESGGALVQPGGSLRLSCIVSGPSLSHFDITWFRQAPGKGLEWVATISPGVSTYYASWAKSRFTISTDTSKNTLFLQMDSLRAEDTAVYYCARGGVGSSWKAFDLWGPGTLVTVSS
VL: ELVMTQSPSSVSASVGDRVTITCQASESISTALAWYQQKPGKAPKLLIYKASTLPSGVPSRFSGSGSGTDFTLTINSLQPEDFATYYCQQGFSSGNVHNAFGGGTKVEIKR
B4: h48D2 VH2:VL5 (antibody, human IgG1, kappa, L234A L235A, V domains shown)
VH: EVQLVESGGALVQPGGSLRLSCIVSGPSLSHFDITWFRQAPGKGLEWVATISPGVSTYYASWAKSRFTISTDTSKNTLFLQMDSLRAEDTAVYYCARGGVGSSWKAFDLWGPGTLVTVSS
VL: APVLTQSPATLEASVGDRVTITCQASESISTALAWYQQKPGQPPKLLIYKASTLPSGVPSRFSGSGSGTEFTLTISDLESDDAATYYCQQGFSSGNVHNAFGGGTEVVVKR
B5: h48D2 VH3:VL1 (antibody, human IgG1, kappa, L234A L235A, V domains shown)
VH: EVQLLESGGGLVLPGGSLRLSCAASGPSLSHFDITWVRQAPGKGLEWVSTISPGVSTYYASWAKSRFTISRDNSKNTLYLQMSSLRAEDTAVYYCARGGVGSSWKAFDLWGLGTTVTVSS
VL: DIVMTQSPSSLSASVGDRVTITCQASESISTALAWYQQKPGKAPKLLIYKASTLPSGVPSRFSGSGSGTDFTLTISSLQPEDFATYYCQQGFSSGNVHNAFGGGTKVVIKR
B6: h48D2 VH3:VL2 (antibody, human IgG1, kappa, L234A L235A, V domains shown)
VH: EVQLLESGGGLVLPGGSLRLSCAASGPSLSHFDITWVRQAPGKGLEWVSTISPGVSTYYASWAKSRFTISRDNSKNTLYLQMSSLRAEDTAVYYCARGGVGSSWKAFDLWGLGTTVTVSS
VL: QIVLTQSPATLSASVGDRVTITCQASESISTALAWYQQKPGKAPKLLIYKASTLPSGVPSRFSGSGSGTEFTLTISSLQPDDSATYYCQQGFSSGNVHNAFGQGTKLEIKR
B7: h48D2 VH3:VL3 (antibody, human IgG1, kappa, L234A L235A, V domains shown)
VH: EVQLLESGGGLVLPGGSLRLSCAASGPSLSHFDITWVRQAPGKGLEWVSTISPGVSTYYASWAKSRFTISRDNSKNTLYLQMSSLRAEDTAVYYCARGGVGSSWKAFDLWGLGTTVTVSS
VL: DILLTQTPSVVSASVGDRVTITCQASESISTALAWYQQKPGQAPRLLIYKASTLPSGVPSRFRGSGSGTDFTLTITSLQPEDFATYYCQQGFSSGNVHNAFGGGTRLEIKR
B8: h48D2 VH3:VL4 (antibody, human IgG1, kappa, L234A L235A, V domains shown)
VH: EVQLLESGGGLVLPGGSLRLSCAASGPSLSHFDITWVRQAPGKGLEWVSTISPGVSTYYASWAKSRFTISRDNSKNTLYLQMSSLRAEDTAVYYCARGGVGSSWKAFDLWGLGTTVTVSS
VL: ELVMTQSPSSVSASVGDRVTITCQASESISTALAWYQQKPGKAPKLLIYKASTLPSGVPSRFSGSGSGTDFTLTINSLQPEDFATYYCQQGFSSGNVHNAFGGGTKVEIKR
B9: h48D2 VH3:VL5 (antibody, human IgG1, kappa, L234A L235A, V domains shown)
VH: EVQLLESGGGLVLPGGSLRLSCAASGPSLSHFDITWVRQAPGKGLEWVSTISPGVSTYYASWAKSRFTISRDNSKNTLYLQMSSLRAEDTAVYYCARGGVGSSWKAFDLWGLGTTVTVSS
VL: APVLTQSPATLEASVGDRVTITCQASESISTALAWYQQKPGQPPKLLIYKASTLPSGVPSRFSGSGSGTEFTLTISDLESDDAATYYCQQGFSSGNVHNAFGGGTEVVVKR
B10: h48D2 VH4:VL1 (antibody, human IgG1, kappa, L234A L235A, V domains shown)
VH: QVQLQESGPGLVKPSETLSLTCTVSGPSLSHFDITWIRQPPGKGLEWIGTISPGVSTYYASWAKSRFTISVDTSKNQFSLKLTSVTAADTATYYCARGGVGSSWKAFDLWGPGTLVTVSS
VL: DIVMTQSPSSLSASVGDRVTITCQASESISTALAWYQQKPGKAPKLLIYKASTLPSGVPSRFSGSGSGTDFTLTISSLQPEDFATYYCQQGFSSGNVHNAFGGGTKVVIKR
B11: h48D2 VH4:VL2 (antibody, human IgG1, kappa, L234A L235A, V domains shown)
VH: QVQLQESGPGLVKPSETLSLTCTVSGPSLSHFDITWIRQPPGKGLEWIGTISPGVSTYYASWAKSRFTISVDTSKNQFSLKLTSVTAADTATYYCARGGVGSSWKAFDLWGPGTLVTVSS
VL: QIVLTQSPATLSASVGDRVTITCQASESISTALAWYQQKPGKAPKLLIYKASTLPSGVPSRFSGSGSGTEFTLTISSLQPDDSATYYCQQGFSSGNVHNAFGQGTKLEIKR
B12: h48D2 VH4:VL3 (antibody, human IgG1, kappa, L234A L235A, V domains shown)
VH: QVQLQESGPGLVKPSETLSLTCTVSGPSLSHFDITWIRQPPGKGLEWIGTISPGVSTYYASWAKSRFTISVDTSKNQFSLKLTSVTAADTATYYCARGGVGSSWKAFDLWGPGTLVTVSS
VL: DILLTQTPSVVSASVGDRVTITCQASESISTALAWYQQKPGQAPRLLIYKASTLPSGVPSRFRGSGSGTDFTLTITSLQPEDFATYYCQQGFSSGNVHNAFGGGTRLEIKR
B13: h48D2 VH4:VL4 (antibody, human IgG1, kappa, L234A L235A, V domains shown)
VH: QVQLQESGPGLVKPSETLSLTCTVSGPSLSHFDITWIRQPPGKGLEWIGTISPGVSTYYASWAKSRFTISVDTSKNQFSLKLTSVTAADTATYYCARGGVGSSWKAFDLWGPGTLVTVSS
VL: ELVMTQSPSSVSASVGDRVTITCQASESISTALAWYQQKPGKAPKLLIYKASTLPSGVPSRFSGSGSGTDFTLTINSLQPEDFATYYCQQGFSSGNVHNAFGGGTKVEIKR
B14: h48D2 VH4:VL5 (antibody, human IgG1, kappa, L234A L235A, V domains shown)
VH: QVQLQESGPGLVKPSETLSLTCTVSGPSLSHFDITWIRQPPGKGLEWIGTISPGVSTYYASWAKSRFTISVDTSKNQFSLKLTSVTAADTATYYCARGGVGSSWKAFDLWGPGTLVTVSS
VL: APVLTQSPATLEASVGDRVTITCQASESISTALAWYQQKPGQPPKLLIYKASTLPSGVPSRFSGSGSGTEFTLTISDLESDDAATYYCQQGFSSGNVHNAFGGGTEVVVKR
B15: h48D2 VH5:VL1 (antibody, human IgG1, kappa, L234A L235A, V domains shown)
VH: QEQLEESGGGLVKPGGTLSLTCTVSGPSLSHFDITWIRQAPGSGLEWIGTISPGVSTYYASWAKSRVTISVDTSLNTVSLKLSSVTAADTATYFCARGGVGSSWKAFDLWGPGTLVTISS
VL: DIVMTQSPSSLSASVGDRVTITCQASESISTALAWYQQKPGKAPKLLIYKASTLPSGVPSRFSGSGSGTDFTLTISSLQPEDFATYYCQQGFSSGNVHNAFGGGTKVVIKR
B16: h48D2 VH5:VL2 (antibody, human IgG1, kappa, L234A L235A, V domains shown)
VH: QEQLEESGGGLVKPGGTLSLTCTVSGPSLSHFDITWIRQAPGSGLEWIGTISPGVSTYYASWAKSRVTISVDTSLNTVSLKLSSVTAADTATYFCARGGVGSSWKAFDLWGPGTLVTISS
VL: QIVLTQSPATLSASVGDRVTITCQASESISTALAWYQQKPGKAPKLLIYKASTLPSGVPSRFSGSGSGTEFTLTISSLQPDDSATYYCQQGFSSGNVHNAFGQGTKLEIKR
B17: h48D2 VH5:VL3 (antibody, human IgG1, kappa, L234A L235A, V domains shown)
VH: QEQLEESGGGLVKPGGTLSLTCTVSGPSLSHFDITWIRQAPGSGLEWIGTISPGVSTYYASWAKSRVTISVDTSLNTVSLKLSSVTAADTATYFCARGGVGSSWKAFDLWGPGTLVTISS
VL: DILLTQTPSVVSASVGDRVTITCQASESISTALAWYQQKPGQAPRLLIYKASTLPSGVPSRFRGSGSGTDFTLTITSLQPEDFATYYCQQGFSSGNVHNAFGGGTRLEIKR
B18: h48D2 VH5.AP:VL4 (antibody, human IgG1, kappa, L234A L235A, V domains shown)
VH: QEQLEESGGGLVKPGGTLSLTCTVSGPSLSHFDITWIRQPPGSGLEWIGTISPGVSTYYASWAKSRVTISVDTSLNTVSLKLSSVTAADTATYFCARGGVGSSWKAFDLWGPGTLVTISS
VL: ELVMTQSPSSVSASVGDRVTITCQASESISTALAWYQQKPGKAPKLLIYKASTLPSGVPSRFSGSGSGTDFTLTINSLQPEDFATYYCQQGFSSGNVHNAFGGGTKVEIKR
B19: h48D2 VH5.SK:VL4 (antibody, human IgG1, kappa, L234A L235A, V domains shown)
VH: QEQLEESGGGLVKPGGTLSLTCTVSGPSLSHFDITWIRQAPGKGLEWIGTISPGVSTYYASWAKSRVTISVDTSLNTVSLKLSSVTAADTATYFCARGGVGSSWKAFDLWGPGTLVTISS
VL: ELVMTQSPSSVSASVGDRVTITCQASESISTALAWYQQKPGKAPKLLIYKASTLPSGVPSRFSGSGSGTDFTLTINSLQPEDFATYYCQQGFSSGNVHNAFGGGTKVEIKR
B20: h48D2 VH1:VL1 (antibody, human IgG1, kappa, L234A L235A, V domains shown)
VH: EVQLEESGGGLVKPGGSLRLSCAASGPSLSHFDITWVRQAPGKGLEWVSTISPGVSTYYASWAKSRFTISRDNSKNTLYLQMNSLRAEDTAVYYCARGGVGSSWKAFDLWGRGTLVTVSS
VL: DIVMTQSPSSLSASVGDRVTITCQASESISTALAWYQQKPGKAPKLLIYKASTLPSGVPSRFSGSGSGTDFTLTISSLQPEDFATYYCQQGFSSGNVHNAFGGGTKVVIKR
B21: h48D2 VH1:VL2 (antibody, human IgG1, kappa, L234A L235A, V domains shown)
VH: EVQLEESGGGLVKPGGSLRLSCAASGPSLSHFDITWVRQAPGKGLEWVSTISPGVSTYYASWAKSRFTISRDNSKNTLYLQMNSLRAEDTAVYYCARGGVGSSWKAFDLWGRGTLVTVSS
VL: QIVLTQSPATLSASVGDRVTITCQASESISTALAWYQQKPGKAPKLLIYKASTLPSGVPSRFSGSGSGTEFTLTISSLQPDDSATYYCQQGFSSGNVHNAFGQGTKLEIKR
B22: h48D2 VH1:VL3 (antibody, human IgG1, kappa, L234A L235A, V domains shown)
VH: EVQLEESGGGLVKPGGSLRLSCAASGPSLSHFDITWVRQAPGKGLEWVSTISPGVSTYYASWAKSRFTISRDNSKNTLYLQMNSLRAEDTAVYYCARGGVGSSWKAFDLWGRGTLVTVSS
VL: DILLTQTPSVVSASVGDRVTITCQASESISTALAWYQQKPGQAPRLLIYKASTLPSGVPSRFRGSGSGTDFTLTITSLQPEDFATYYCQQGFSSGNVHNAFGGGTRLEIKR

Biological target: 重组mfIL1RAP aa21-367 (食蟹猴 (Macaca fascicularis))
Experiment: binding ELISA, coated mfIL1RAP aa21-367

binding, binds:
B1, B2, B3, B4, B5, B6, B7, B8, B9, B10, B11, B12, B13, B14, B15, B16, B17, B18, B19, B20, B21, B22
